Test results published in PMC12274967.
These are yes or no findings as the source states them, for the method shown. Binding seen in cells or lysates may run through a third protein. Some entries that bind do so weakly or less than the wild type.

By UniProt entry, the sequences of proteins in these tests, tags left out.
UniProt Q92560: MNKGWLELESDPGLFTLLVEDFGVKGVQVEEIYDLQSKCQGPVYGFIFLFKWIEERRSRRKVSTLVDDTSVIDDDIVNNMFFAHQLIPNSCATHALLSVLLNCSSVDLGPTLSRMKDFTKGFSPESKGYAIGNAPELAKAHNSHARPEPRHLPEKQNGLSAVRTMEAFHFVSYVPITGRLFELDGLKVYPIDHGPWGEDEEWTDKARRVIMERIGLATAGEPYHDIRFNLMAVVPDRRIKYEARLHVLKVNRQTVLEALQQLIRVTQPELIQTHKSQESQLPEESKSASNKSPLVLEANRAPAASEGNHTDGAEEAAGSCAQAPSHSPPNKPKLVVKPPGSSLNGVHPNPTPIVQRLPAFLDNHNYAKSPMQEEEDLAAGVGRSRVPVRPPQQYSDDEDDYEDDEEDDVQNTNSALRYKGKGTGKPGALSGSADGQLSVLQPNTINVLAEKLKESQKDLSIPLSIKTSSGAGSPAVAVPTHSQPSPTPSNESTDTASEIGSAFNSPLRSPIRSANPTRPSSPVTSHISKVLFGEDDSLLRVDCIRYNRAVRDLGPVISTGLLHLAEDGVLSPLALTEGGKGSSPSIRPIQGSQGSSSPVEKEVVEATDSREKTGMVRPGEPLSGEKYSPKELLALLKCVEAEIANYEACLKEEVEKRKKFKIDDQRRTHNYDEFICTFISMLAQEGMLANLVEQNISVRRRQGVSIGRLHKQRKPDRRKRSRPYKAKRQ
UniProt P25490: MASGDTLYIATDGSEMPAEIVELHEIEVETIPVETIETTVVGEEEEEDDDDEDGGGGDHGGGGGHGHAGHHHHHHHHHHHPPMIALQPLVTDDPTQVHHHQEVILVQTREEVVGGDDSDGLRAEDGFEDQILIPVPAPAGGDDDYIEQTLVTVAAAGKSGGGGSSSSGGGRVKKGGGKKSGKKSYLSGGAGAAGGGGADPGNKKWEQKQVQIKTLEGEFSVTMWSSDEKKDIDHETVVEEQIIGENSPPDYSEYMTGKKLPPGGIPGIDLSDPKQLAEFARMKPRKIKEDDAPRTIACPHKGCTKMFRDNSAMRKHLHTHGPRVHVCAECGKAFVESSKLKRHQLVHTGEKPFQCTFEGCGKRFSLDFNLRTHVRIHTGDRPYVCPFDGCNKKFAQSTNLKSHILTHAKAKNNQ
UniProt P04406: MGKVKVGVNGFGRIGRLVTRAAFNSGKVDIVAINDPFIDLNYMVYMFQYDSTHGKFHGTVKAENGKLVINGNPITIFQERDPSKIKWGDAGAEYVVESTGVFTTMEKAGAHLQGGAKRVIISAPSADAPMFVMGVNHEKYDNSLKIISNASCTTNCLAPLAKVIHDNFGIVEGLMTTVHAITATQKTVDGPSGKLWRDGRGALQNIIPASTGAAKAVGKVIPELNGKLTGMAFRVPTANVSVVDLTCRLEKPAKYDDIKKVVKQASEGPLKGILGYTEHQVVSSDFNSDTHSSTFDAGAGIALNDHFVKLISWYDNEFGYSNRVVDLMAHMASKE

Biological target: BRCA1-associated protein 1 (human (endogenous in 786-O)) (UniProt Q92560)
Assay: co-IP; 786-O cell lysate (IP buffer with Tris, NaCl, EDTA, NP-40, glycerin, pH 7.4); endogenous BAP1 precipitated with agarose-cross-linked mouse anti-human BAP1 monoclonal antibody, 4°C overnight, normal mouse IgG as control; washed with TBS; Western blot of the precipitate

binding | Substance
binds | YY1 (from UniProt P25490 1-414)
no binding | glyceraldehyde-3-phosphate dehydrogenase (from UniProt P04406 1-335)
